Results taken from publication doi:10.1101/2025.08.01.667725.
These are yes or no findings as the source states them, for the method shown. Binding seen in cells or lysates may run through a third protein. Some results given as binding are weak or reduced against the parent protein; the word gives no strength.

Sequences of proteins named here, by UniProt entry; tags and fusion partners are left off.
UniProt P23771: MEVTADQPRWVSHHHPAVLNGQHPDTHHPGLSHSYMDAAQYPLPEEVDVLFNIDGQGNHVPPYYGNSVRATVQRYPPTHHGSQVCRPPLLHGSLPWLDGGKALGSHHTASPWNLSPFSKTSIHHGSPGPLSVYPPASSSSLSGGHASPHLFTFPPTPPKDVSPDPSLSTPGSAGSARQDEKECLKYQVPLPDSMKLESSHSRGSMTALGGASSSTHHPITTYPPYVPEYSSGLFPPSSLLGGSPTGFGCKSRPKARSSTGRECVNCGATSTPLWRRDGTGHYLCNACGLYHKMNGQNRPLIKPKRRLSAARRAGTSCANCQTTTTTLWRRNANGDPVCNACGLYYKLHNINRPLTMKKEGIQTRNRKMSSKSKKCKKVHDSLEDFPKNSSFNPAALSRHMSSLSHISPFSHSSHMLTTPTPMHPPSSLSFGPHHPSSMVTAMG

Target: HA-tagged GATA3 (human) (UniProt P23771)
Assay: co-IP; HA-tagged TF expressed in wild-type and in SMARCA4/SMARCA2 dual-deficient HEK-293T cells; nuclear extract; immunoblot

Row | binding | Substance
1 | binds | SMARCC1 (from UniProt Q92922 1-1105)
2 | binds | SMARCD1 (from UniProt Q96GM5 1-515)
